The experiment deals with L1210 leukemia ip in BDF1 mice, survival T/C. In words: NCI In Vivo Anticancer Drug Screen. Data for tumor model L1210 Leukemia (intraperitoneal) in B6D2F1 (BDF1) mice. The following applies: T/C endpoint: mean survival time, higher T/C = longer survival.
Setting [1] is: dose: 400.0 mg/kg/injection, schedule: Q01DX001 (ip), vehicle: saline.
The mark [2] stands for this setting: dose: 200.0 mg/kg/injection, schedule: Q04DX003 (ip), vehicle: saline.
Where [3] appears, read: dose: 400.0 mg/kg/injection, schedule: Q04DX003 (ip), vehicle: saline.
[4] abbreviates: dose: 400.0 mg/kg/injection, schedule: Q01DX009 (ip), vehicle: saline with Tween-80.
[5] abbreviates: dose: 6.25 mg/kg/injection, schedule: Q01DX009 (ip), vehicle: saline.
Setting [6] is: dose: 100.0 mg/kg/injection, schedule: Q01DX009 (ip), vehicle: saline.
Setting [7] is: dose: 200.0 mg/kg/injection, schedule: Q01DX009 (ip), vehicle: saline.
[8] abbreviates: dose: 200.0 mg/kg/injection, schedule: Q04DX002 (ip), vehicle: Klucel (hydroxypropylcellulose) (HPC).
Where [9] appears, read: dose: 400.0 mg/kg/injection, schedule: Q01DX001 (ip), vehicle: Klucel (hydroxypropylcellulose) (HPC).

The list is a part of this screen's results and no random one: it is rich in T/C values a quarter to a half above the control, in often repeated tests (any T/C) and in doses without a T/C. Further doses and runs are listed elsewhere. T/C is the treated group as % of the vehicle group. Some entries give survivors of the animals treated and no T/C: the source files T/C as zero there, which appears to mark a toxic dose or a test without result, not a measured value. Some doses without a T/C left all or most animals alive at the check, yet need not have been tolerated: the source hardly ever lists a survival T/C far under the control, and the zero likely stands for such cases as well. Counts of survivors are from the toxicity check (mostly the fifth day) where no day follows; animals may have died later. Schedules are NCI's codes, read here as Q, the interval in days (D) or hours (H), X, the number of doses. Some molecules as drawn cover several salts, stereoisomers or complexes of the source; a dose is that of the sample tested. Some entries were tested several times; their values stand side by side, smallest first. Some schedules carry Z or #; the key to these is not given. Where survival is the endpoint, the PubChem record calls one and a half times the control and up active, and a quarter to a half above the control has no call in these data; cut-offs in other NCI protocols can differ. Some T/C values carry the count of animals alive at the toxicity check (mostly the fifth day); without a count, all were alive then. Counts like (3×) stand for listed records that agree.

For `CC(C)C(NC(=O)OC(C)(C)C)C(=O)O` (configuration not stated), the T/C (dose: 25.0 mg/kg/injection, schedule: Q04DX003 (ip), vehicle: other) is 125 % of control. The survivor count was 1 of 6 (dose: 200.0 mg/kg/injection, schedule: Q01DX001 (ip), vehicle: saline); 0 of 6 under setting [1]; 4 of 6 and 5 of 6 (dose: 400.0 mg/kg/injection, schedule: Q04DX003 (ip), vehicle: other).

Take `Cc1ccc[n+](CC(=O)c2ccc(-c3ccc(C(=O)C[n+]4cccc(C)c4)cc3)cc2)c1`: the survivor count (dose: 12.5 mg/kg/injection, schedule: Q04DX003 (ip), vehicle: saline) was 0 of 6; the survivor count (dose: 25.0 mg/kg/injection, schedule: Q04DX003 (ip), vehicle: saline) is reported as 0 of 6; the survivor count (dose: 50.0 mg/kg/injection, schedule: Q04DX003 (ip), vehicle: saline) was 0 of 6; the survivor count (dose: 100.0 mg/kg/injection, schedule: Q04DX003 (ip), vehicle: saline) is listed as 0 of 6; the survivor count under setting [2] was 0 of 6; the survivor count under setting [3] is given as 0 of 6.

For the compound `O=C1CC(N2CCCCC2)C(=O)N1c1ccccc1` (configuration not stated), the survivor count (dose: 400.0 mg/kg/injection, schedule: Q04DX002 (ip), vehicle: saline with Tween-80) is 3 of 3.

For `CC(C)(C)OC(=O)NCCCCC(NC(=O)OCc1ccccc1)C(=O)Oc1ccc([N+](=O)[O-])cc1` (configuration not stated), under setting [4], the survivor count is recorded as 6 of 6.

In the case of `CC1=C(C)C2(C)C1(C)C1(C)C(C)=C(C)C21C` (configuration not stated), under “dose: 400.0 mg/kg/injection, schedule: Q01DX009 (ip), vehicle: acetone”, the survivor count was 6 of 6.

Regarding `C(=P(c1ccccc1)(c1ccccc1)c1ccccc1)[P+](c1ccccc1)(c1ccccc1)c1ccccc1`, the T/C (dose: 3.13 mg/kg/injection, schedule: Q01DX009 (ip), vehicle: saline) was 93 [2 of 3 alive], 102 (2×), 104 % of control; the T/C (dose: 4.12 mg/kg/injection, schedule: Q01DX009 (ip), vehicle: saline) is 125 % of control; the T/C under setting [5] was 134 % of control; the T/C (dose: 9.3 mg/kg/injection, schedule: Q01DX009 (ip), vehicle: saline) is 136 % of control. In addition, the survivor count runs as follows: under setting [5], 0 of 3 and 4 of 6; (dose: 12.5 mg/kg/injection, schedule: Q01DX009 (ip), vehicle: saline) 0 of 3 and 3 of 6; (dose: 25.0 mg/kg/injection, schedule: Q01DX009 (ip), vehicle: saline) 6 of 6; (dose: 50.0 mg/kg/injection, schedule: Q01DX009 (ip), vehicle: saline) 1 of 6 and 1 of 3; under setting [6], 0 of 3; (dose: 100.0 mg/kg/injection, schedule: Q04DX002 (ip), vehicle: saline) 0 of 3 and 0 of 6. The survivor count under setting [7] was 0 of 3; the survivor count (dose: 200.0 mg/kg/injection, schedule: Q04DX002 (ip), vehicle: saline) is 0 of 3 and 0 of 6; the survivor count (dose: 400.0 mg/kg/injection, schedule: Q04DX002 (ip), vehicle: saline) is recorded as 0 of 3, 0 of 6, 3 of 3.

Turning to `CSC(N)=Nc1cccc2c1CCCC2`, the survivor count is, setting by setting: under setting [7], 1 of 6; under setting [3], 0 of 6.

`Nc1nc(=S)[nH]c(N)c1N`: the survivor count is reported as 2 of 6 (dose: 250.0 mg/kg/injection, schedule: Q01DX Z (ip), vehicle: methylcellulose (MC)) and 3 of 6 (dose: 500.0 mg/kg/injection, schedule: Q01DX Z (ip), vehicle: methylcellulose (MC)).

For `O=C(O)c1cccc(C(=O)O)[n+]1[O-]`, the survivor count under setting [8] is 2 of 3.

For `COc1cccc(NN)c1`, the survivor count under setting [6] is 6 of 6, the survivor count under setting [7] was 0 of 6, the survivor count under setting [2] is 5 of 6 and the survivor count under setting [3] is 0 of 6.

With `CCOC(=O)NCC(CCCCN(C)C)(c1cccc2ccccc12)C(C)CC` (configuration not stated), the survivor count reads like this: under setting [6], 1 of 6; under setting [7], 0 of 6; (dose: 400.0 mg/kg/injection, schedule: Q01DX009 (ip), vehicle: saline) 0 of 6.

For `O=C(CBr)CC(=O)Nc1ccccc1`, where the note is “dose: 100.0 mg/kg/injection, schedule: Q01DX009 (ip), vehicle: saline with Tween-80”, the survivor count is recorded as 4 of 6.

Turning to `CC(NC(=O)C1CC2c3cccc4[nH]cc(c34)CC2N(C)C1)C(C)(C)C` (configuration not stated), the survivor count is listed as 2 of 6 (dose: 100.0 mg/kg/injection, schedule: Q01DX001 (ip), vehicle: Klucel (hydroxypropylcellulose) (HPC)); 1 of 6 (dose: 200.0 mg/kg/injection, schedule: Q01DX001 (ip), vehicle: Klucel (hydroxypropylcellulose) (HPC)); 0 of 6 under setting [9].

For the compound `NC(CCl)=NCC1CCCCCC1`, the survivor count is reported as 1 of 3 (dose: 100.0 mg/kg/injection, schedule: Q04DX002 (ip), vehicle: Klucel (hydroxypropylcellulose) (HPC)); 0 of 3 under setting [8]; 0 of 3 (dose: 400.0 mg/kg/injection, schedule: Q04DX002 (ip), vehicle: Klucel (hydroxypropylcellulose) (HPC)).

For `CC[N+]1(C)CCOCC1`, under “dose: 300.0 mg/kg/injection, schedule: Q01DX001 (ip), vehicle: saline”, the survivor count is recorded as 3 of 6.

For `O=C(NO)c1cc(Br)cc(Br)c1O`, the survivor count (dose: 200.0 mg/kg/injection, schedule: Q01DX009 (ip), vehicle: saline with Tween-80) was 3 of 6 and the survivor count under setting [4] was 0 of 6.

For `CCC1(C)C(=O)N(Br)C(=O)N1Br` (configuration not stated), the survivor count under setting [9] is listed as 3 of 6.

As for `NC(Cc1ccccc1)CC1CC1` (configuration not stated), the survivor count is 3 of 6 (dose: 100.0 mg/kg/injection, schedule: Q04DX003 (ip), vehicle: Klucel (hydroxypropylcellulose) (HPC)); 0 of 6 (dose: 200.0 mg/kg/injection, schedule: Q04DX003 (ip), vehicle: Klucel (hydroxypropylcellulose) (HPC)); 0 of 6 (dose: 400.0 mg/kg/injection, schedule: Q04DX003 (ip), vehicle: Klucel (hydroxypropylcellulose) (HPC)).

Regarding `F[C](F)(F)[Hg][Br]`, the survivor count (dose: 25.0 mg/kg/injection, schedule: Q04DX002 (ip), vehicle: saline with Tween-80) is 0 of 3; the survivor count (dose: 50.0 mg/kg/injection, schedule: Q04DX002 (ip), vehicle: saline with Tween-80) was 0 of 3; the survivor count (dose: 100.0 mg/kg/injection, schedule: Q04DX002 (ip), vehicle: saline with Tween-80) is on record as 0 of 3.

Consider `Brc1cccc[n+]1-c1cccc(-c2cccc(-[n+]3ccccc3Br)c2)c1`, for which the survivor count is recorded as 1 of 6 (dose: 37.5 mg/kg/injection, schedule: Q01DX001 (ip), vehicle: other); 1 of 6 (dose: 75.0 mg/kg/injection, schedule: Q01DX001 (ip), vehicle: other); 1 of 6 (dose: 150.0 mg/kg/injection, schedule: Q01DX001 (ip), vehicle: other); 0 of 6 (dose: 300.0 mg/kg/injection, schedule: Q01DX001 (ip), vehicle: other).

On to `N#C/C(C(N)=O)=C1\CCCc2sccc21`, for which, under setting [1], the survivor count is recorded as 0 of 4.

`c1ccncc1`: the survivor count by setting is: (dose: 25.0 mg/kg/injection, schedule: Q01DX009 (ip), vehicle: alcohol) 2 of 3; (dose: 50.0 mg/kg/injection, schedule: Q01DX009 (ip), vehicle: alcohol) 3 of 3; (dose: 100.0 mg/kg/injection, schedule: Q01DX009 (ip), vehicle: alcohol) 3 of 6 and 3 of 3; (dose: 200.0 mg/kg/injection, schedule: Q01DX009 (ip), vehicle: Klucel (hydroxypropylcellulose) (HPC)) 6 of 6; (dose: 200.0 mg/kg/injection, schedule: Q01DX009 (ip), vehicle: alcohol) 1 of 6; (dose: 400.0 mg/kg/injection, schedule: Q01DX009 (ip), vehicle: Klucel (hydroxypropylcellulose) (HPC)) 3 of 6. Moreover, the survivor count (dose: 400.0 mg/kg/injection, schedule: Q01DX009 (ip), vehicle: alcohol) is given as 0 of 6.

The record behind these values is PubChem BioAssay AID248 (DTP/NCI, 2004).
